Measurements: article PMC4585976
Results are given in words; binding and its absence hold for the method and conditions named. In cells and extracts the contact can be indirect. Here binding means that the protein was enriched with, or labelled near, the bait; the list need not be complete. Tags and fused reporters may be left off the sequences shown.

Molecular target: T1, FLAG-haemagglutinin (HA) epitope-tagged ARIP4 (ARIP4-FH) (human) (UniProt Q9Y4B4)
T1 sequence: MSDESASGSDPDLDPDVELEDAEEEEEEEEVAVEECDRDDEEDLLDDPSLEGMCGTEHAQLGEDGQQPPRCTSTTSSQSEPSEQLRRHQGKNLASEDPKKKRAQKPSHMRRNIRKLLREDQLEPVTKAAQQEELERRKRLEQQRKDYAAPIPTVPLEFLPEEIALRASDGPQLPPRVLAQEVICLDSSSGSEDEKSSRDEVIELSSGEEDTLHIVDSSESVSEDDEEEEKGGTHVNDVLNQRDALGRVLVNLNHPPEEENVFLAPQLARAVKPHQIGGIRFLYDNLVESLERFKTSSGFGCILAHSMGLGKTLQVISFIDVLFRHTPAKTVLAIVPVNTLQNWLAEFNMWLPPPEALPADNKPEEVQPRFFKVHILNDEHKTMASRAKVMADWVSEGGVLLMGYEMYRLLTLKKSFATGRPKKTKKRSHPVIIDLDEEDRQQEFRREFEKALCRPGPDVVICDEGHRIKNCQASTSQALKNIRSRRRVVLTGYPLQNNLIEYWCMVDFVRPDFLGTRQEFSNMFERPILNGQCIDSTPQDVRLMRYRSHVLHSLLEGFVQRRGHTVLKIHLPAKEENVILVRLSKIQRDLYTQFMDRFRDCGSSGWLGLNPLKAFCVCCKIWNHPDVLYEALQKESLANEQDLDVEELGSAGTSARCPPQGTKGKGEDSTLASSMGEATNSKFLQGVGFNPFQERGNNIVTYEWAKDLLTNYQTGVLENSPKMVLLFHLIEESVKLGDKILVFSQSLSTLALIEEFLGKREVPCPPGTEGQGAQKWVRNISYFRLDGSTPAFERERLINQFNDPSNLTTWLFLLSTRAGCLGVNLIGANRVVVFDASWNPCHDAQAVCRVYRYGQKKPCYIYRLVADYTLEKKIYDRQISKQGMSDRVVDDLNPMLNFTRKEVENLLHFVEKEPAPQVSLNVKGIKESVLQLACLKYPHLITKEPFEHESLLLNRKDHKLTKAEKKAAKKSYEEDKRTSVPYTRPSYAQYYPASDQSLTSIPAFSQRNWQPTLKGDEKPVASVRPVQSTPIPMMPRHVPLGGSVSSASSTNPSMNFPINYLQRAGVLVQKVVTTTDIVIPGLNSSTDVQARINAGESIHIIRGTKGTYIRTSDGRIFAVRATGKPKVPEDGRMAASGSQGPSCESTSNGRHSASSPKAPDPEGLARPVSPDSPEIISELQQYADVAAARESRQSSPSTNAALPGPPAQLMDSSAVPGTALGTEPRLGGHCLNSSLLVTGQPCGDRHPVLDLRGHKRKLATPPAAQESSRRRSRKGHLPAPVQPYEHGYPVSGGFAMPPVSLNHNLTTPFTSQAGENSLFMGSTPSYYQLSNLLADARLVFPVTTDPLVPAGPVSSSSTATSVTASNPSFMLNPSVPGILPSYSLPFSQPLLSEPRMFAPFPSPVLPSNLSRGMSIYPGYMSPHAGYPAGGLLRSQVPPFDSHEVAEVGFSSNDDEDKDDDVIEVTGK
Assay: affinity purification with mass spectrometry; nuclear extracts of HeLa cells stably expressing ARIP4-FH; anti-FLAG agarose, elution with 3x FLAG peptide, then anti-HA (12CA5) agarose; silver staining, bands identified by MALDI-TOF MS; mock purification from cells without exogenous protein as …

B1: HAN11 (also known as WDR68) (protein, UniProt P61962 1-342)
chain: MSLHGKRKEIYKYEAPWTVYAMNWSVRPDKRFRLALGSFVEEYNNKVQLVGLDEESSEFICRNTFDHPYPTTKLMWIPDTKGVYPDLLATSGDYLRVWRVGETETRLECLLNNNKNSDFCAPLTSFDWNEVDPYLLGTSSIDTTCTIWGLETGQVLGRVNLVSGHVKTQLIAHDKEVYDIAFSRAGGGRDMFASVGADGSVRMFDLRHLEHSTIIYEDPQHHPLLRLCWNKQDPNYLATMAMDGMEVVILDVRVPCTPVARLNNHRACVNGIAWAPHSSCHICTAADDHQALIWDIQQMPRAIEDPILAYTAEGEINNVQWASTQPDWIAICYNNCLEILRV
binding: binds
